Assay results published in the supplement of paper PMC11006884.
The entries are a selection whose mix differs from that of the whole data set.

By UniProt entry, the sequences of proteins in these tests, tags left out. Where a name states a change or a piece, a line headed by the entry shows the natural chain unless it says otherwise.
UniProt P25685, whole entry, looked up: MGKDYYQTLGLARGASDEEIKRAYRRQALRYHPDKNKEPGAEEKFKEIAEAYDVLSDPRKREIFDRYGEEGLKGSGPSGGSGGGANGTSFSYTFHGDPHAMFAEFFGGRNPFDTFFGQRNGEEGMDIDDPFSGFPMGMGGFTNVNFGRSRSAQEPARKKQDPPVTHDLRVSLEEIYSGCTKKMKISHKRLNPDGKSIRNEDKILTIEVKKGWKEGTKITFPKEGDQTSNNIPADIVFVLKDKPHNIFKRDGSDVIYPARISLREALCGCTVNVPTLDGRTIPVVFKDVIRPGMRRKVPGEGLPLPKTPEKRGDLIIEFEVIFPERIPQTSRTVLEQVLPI
UniProt P17987, whole entry, looked up: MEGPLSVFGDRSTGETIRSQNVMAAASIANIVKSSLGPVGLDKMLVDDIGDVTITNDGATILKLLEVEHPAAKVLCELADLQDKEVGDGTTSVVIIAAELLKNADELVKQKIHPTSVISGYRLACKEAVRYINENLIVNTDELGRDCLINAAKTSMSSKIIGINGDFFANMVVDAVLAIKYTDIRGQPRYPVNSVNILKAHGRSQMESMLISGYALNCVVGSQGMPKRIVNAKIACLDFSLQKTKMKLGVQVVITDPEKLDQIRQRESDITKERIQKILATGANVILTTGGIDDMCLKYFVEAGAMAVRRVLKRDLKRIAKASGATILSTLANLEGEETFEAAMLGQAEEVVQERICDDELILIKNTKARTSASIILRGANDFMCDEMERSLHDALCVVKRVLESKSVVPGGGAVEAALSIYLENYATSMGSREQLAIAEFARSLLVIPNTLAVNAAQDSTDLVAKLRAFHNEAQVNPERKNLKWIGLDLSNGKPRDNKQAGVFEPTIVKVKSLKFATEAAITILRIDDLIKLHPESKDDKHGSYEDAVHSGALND
UniProt P27695, whole entry, looked up: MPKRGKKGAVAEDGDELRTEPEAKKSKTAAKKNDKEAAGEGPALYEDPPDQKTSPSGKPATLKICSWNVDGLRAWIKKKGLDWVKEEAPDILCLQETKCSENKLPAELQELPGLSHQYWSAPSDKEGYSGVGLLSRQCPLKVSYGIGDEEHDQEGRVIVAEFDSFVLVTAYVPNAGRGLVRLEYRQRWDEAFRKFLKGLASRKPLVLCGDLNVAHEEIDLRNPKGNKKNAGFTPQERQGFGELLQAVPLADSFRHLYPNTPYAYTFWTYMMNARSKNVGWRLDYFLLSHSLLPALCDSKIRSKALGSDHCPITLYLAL
UniProt P28340: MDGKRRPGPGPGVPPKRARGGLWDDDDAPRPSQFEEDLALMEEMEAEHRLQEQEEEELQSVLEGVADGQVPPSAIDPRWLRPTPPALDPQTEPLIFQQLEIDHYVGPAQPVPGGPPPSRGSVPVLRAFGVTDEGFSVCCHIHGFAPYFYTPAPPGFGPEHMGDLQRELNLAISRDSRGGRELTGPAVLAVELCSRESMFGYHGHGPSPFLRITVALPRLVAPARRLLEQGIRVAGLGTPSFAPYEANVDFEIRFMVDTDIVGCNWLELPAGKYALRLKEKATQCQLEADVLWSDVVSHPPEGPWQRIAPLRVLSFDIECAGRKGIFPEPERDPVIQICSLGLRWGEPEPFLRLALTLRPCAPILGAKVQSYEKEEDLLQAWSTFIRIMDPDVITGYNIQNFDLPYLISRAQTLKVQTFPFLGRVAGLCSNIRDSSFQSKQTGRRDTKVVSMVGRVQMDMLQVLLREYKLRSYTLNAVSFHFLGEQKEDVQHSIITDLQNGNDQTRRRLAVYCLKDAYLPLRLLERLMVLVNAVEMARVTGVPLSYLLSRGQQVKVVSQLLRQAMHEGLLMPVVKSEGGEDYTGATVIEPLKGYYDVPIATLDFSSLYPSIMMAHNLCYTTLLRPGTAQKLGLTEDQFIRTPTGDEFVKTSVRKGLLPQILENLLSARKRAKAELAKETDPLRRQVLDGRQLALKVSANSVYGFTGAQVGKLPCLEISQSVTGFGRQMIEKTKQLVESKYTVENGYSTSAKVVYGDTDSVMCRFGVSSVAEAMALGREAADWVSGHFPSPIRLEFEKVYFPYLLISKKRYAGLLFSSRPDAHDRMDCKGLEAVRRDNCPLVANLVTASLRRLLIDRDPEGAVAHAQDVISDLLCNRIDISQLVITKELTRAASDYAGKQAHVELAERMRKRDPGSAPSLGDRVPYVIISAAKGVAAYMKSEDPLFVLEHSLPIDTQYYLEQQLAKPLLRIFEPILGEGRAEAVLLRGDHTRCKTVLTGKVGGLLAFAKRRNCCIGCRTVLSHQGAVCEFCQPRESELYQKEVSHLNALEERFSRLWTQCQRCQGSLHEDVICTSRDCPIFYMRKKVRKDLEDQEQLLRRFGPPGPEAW
UniProt P22307: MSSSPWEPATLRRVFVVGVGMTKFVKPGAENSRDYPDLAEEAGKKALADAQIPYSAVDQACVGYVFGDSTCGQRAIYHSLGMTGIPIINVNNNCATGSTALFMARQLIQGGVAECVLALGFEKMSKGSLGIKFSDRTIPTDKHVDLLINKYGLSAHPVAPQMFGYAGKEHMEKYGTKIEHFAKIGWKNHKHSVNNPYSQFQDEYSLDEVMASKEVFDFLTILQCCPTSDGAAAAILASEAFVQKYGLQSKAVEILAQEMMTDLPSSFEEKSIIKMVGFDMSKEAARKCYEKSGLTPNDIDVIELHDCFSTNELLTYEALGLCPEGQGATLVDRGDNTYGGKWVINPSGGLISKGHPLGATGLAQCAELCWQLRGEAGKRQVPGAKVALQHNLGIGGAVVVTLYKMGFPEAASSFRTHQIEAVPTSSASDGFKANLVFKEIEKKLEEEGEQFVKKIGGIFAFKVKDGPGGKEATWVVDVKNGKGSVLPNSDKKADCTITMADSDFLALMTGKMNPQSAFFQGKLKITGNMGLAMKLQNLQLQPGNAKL
UniProt P28482, whole entry, looked up: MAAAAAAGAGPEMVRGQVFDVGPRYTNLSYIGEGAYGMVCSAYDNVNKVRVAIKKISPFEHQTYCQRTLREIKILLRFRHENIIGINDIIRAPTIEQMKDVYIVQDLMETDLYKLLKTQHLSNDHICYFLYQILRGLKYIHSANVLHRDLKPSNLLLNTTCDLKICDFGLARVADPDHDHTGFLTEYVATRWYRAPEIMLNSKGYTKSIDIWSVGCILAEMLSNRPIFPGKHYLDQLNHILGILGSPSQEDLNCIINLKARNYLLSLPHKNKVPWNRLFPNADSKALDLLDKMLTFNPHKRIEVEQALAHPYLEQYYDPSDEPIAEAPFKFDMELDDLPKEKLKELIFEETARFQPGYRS
UniProt P18887, whole entry: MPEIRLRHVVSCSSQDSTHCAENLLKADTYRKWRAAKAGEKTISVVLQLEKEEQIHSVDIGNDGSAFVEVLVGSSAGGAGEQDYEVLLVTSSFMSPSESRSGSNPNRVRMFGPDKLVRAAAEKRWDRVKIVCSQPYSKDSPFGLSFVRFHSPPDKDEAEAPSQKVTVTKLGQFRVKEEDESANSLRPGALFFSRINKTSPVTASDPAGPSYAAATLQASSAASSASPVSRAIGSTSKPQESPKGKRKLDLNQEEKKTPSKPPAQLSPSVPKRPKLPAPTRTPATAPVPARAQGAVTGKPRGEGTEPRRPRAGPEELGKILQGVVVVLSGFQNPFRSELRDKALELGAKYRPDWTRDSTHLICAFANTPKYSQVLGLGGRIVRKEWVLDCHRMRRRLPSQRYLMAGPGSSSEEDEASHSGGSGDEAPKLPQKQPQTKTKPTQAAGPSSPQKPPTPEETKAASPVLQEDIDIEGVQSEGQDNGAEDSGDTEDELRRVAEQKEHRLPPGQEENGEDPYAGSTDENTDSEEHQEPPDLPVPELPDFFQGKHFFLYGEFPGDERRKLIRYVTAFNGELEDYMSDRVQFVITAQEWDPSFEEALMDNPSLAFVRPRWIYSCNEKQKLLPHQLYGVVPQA
UniProt P22392, whole entry: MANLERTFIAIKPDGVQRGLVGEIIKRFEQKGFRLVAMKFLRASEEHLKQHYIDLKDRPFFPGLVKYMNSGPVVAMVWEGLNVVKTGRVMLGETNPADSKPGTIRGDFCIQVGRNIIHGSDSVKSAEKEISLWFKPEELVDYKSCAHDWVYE
UniProt P19174: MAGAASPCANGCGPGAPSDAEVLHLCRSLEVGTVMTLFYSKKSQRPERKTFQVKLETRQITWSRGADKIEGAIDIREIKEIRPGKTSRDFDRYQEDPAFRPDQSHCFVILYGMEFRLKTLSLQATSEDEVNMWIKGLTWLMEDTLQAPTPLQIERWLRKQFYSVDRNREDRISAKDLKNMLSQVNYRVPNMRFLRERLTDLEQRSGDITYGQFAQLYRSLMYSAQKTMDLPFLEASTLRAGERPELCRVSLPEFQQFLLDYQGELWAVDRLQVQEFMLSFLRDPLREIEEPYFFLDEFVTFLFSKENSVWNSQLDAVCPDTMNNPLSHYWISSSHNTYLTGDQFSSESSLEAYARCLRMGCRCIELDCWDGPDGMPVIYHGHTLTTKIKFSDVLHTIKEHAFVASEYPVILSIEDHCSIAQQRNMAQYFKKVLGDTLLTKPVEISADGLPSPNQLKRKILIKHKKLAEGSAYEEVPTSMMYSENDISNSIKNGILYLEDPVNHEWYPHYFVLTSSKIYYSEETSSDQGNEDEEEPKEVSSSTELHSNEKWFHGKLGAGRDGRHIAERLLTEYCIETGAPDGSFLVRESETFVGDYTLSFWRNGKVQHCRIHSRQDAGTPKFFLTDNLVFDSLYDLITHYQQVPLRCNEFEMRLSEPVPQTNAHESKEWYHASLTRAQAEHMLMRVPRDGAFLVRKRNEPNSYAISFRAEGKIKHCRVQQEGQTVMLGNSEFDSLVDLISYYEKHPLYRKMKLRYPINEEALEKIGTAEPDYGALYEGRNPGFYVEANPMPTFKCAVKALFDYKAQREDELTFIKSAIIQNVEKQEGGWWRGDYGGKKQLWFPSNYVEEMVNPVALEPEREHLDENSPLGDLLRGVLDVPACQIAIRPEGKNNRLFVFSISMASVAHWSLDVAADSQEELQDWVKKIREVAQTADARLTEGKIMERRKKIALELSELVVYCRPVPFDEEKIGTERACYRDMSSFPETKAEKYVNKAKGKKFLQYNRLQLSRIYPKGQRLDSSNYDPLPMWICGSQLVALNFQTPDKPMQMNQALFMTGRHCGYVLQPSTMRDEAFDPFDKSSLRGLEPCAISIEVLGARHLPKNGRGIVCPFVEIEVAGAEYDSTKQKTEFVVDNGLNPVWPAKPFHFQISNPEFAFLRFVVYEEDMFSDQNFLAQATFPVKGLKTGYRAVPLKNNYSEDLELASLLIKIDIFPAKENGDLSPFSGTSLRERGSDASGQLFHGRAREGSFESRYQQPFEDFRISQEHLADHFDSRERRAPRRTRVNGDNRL
UniProt P27816: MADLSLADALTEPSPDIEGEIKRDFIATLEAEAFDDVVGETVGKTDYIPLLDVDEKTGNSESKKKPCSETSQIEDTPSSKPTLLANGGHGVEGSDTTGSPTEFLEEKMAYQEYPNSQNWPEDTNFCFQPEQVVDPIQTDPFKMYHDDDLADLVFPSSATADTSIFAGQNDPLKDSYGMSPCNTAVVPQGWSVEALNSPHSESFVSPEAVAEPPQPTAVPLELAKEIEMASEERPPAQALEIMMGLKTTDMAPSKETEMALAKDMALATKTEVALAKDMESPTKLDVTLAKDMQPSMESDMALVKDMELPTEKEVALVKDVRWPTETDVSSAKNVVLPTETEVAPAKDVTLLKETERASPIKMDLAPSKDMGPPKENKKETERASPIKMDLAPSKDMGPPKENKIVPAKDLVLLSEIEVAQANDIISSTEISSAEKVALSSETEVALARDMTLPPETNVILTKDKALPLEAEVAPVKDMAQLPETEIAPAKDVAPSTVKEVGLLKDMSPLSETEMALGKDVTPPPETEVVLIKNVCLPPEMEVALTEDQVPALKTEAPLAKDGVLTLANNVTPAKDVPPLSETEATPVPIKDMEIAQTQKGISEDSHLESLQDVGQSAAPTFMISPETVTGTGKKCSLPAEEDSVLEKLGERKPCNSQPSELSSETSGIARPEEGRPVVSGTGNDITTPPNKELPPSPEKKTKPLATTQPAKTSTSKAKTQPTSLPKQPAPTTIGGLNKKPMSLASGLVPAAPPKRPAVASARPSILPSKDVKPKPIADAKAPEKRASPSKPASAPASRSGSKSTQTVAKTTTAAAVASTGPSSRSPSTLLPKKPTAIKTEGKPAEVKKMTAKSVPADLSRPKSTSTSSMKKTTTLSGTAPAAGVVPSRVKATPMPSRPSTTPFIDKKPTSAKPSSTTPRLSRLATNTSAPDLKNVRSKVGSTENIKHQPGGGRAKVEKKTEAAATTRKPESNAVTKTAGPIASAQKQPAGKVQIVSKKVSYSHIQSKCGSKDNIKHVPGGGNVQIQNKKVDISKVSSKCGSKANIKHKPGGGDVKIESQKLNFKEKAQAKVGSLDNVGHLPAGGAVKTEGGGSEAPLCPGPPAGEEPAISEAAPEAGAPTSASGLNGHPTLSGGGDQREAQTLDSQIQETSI

These targets were tested with COC(=O)C#Cc1ccccc1 [methyl 3-phenylpropiolate] (assay: log2 ratio of iodoacetamide-alkyne labeling of the cysteine site, DMSO over compound (competition); higher = stronger covalent engagement of the cysteine by the compound, active = 1 or more). Settings: 500 µM; treatment time 1 h; system: HEK293T cell lysate.
Procedure, shortened: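 HEK293T lysate (2 mg/mL) was treated with DMSO or electrophile (500 µM, 1 h, ambient temperature), then iodoacetamide alkyne (1 h), clicked to sCIP-TMT reagents, pooled, trypsin-digested overnight at 37 °C, streptavidin-enriched and acid-eluted. Peptides were run on Orbitrap Eclipse LC-MS/MS with FAIMS and quantified in FragPipe. The log2 competition ratio per cysteine is mean control-channel over mean compound-channel reporter intensity. Duplicate channels and three replicates were used, and cysteines quantified in only one replicate were excluded.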

Target | log2 ratio of iodoacetamide-alkyne labeling
UniProt P25398_C69 | inactive: -0.126
DNAJB1 C267 (UniProt P25685) | inactive: 0.268
TCP1 C397 (UniProt P17987) | inactive: 0.159
APEX1 C208 (UniProt P27695) | inactive: -0.225
POLD1 C837 (UniProt P28340) | active: 1.16
PSMA1 C148 (UniProt P25786) | inactive: 0.0454
DNMT1 C1226 (UniProt P26358) | inactive: -0.0963
SCP2 C71 (UniProt P22307) | inactive: 0.386
APEX1 C65 (UniProt P27695) | inactive: 0.045
UniProt P28482_C161 | inactive: 0.079
LMNB1 C110 (UniProt P20700) | inactive: -0.0185
XRCC1 C362 (UniProt P18887) | inactive: 0.725
NME2 C145 (UniProt P22392) | inactive: 0.091
PLCG1 C976 (UniProt P19174) | active: 1.9
MAP4 C635 (UniProt P27816) | inactive: 0.334
